Assay results published in the supplement of paper PMC8104966.
Some of the results follow. Single values are uncertain here, since repeats match poorly.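 Fusion between ACE2-bearing and full-length-spike-bearing U2OS cells was measured by imaging as the percentage of nuclei with both cell types' fluorescent markers. An inhibitory hit is a non-toxic compound whose fusion z-score is below -3, more than three standard deviations beneath the plate's DMSO wells.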

What follows are compounds tested on U2OS ACE2 x SARS-CoV-2 spike co-culture (assay: cell-cell fusion (fraction fused) z-score vs plate DMSO control; higher = more fusion). Conditions: 30 µM; 5 h; toxicity class: non-toxic, passed QC.

Row | SMILES | cell-cell fusion (z-score)
1 | COc1ccccc1O | inactive: 1.38
2 | CC/C(=C(/CC)c1ccc(O)cc1)c1ccc(O)cc1 [Diethylstilbestrol] | inactive: -1.55
3 | C[N+](C)(C)CC=O.[Cl-] [Betaine aldehyde chloride] | inactive: 2.02
4 | CC(C)=CCOc1cc2oc(=O)ccc2cc1O | inactive: 1.65
5 | N[C@H]1CONC1=O [L-Cycloserine] | inactive: 2.13
6 | N#Cc1c(O)c2c(-c3ccc(-c4ccccc4O)cc3)csc2[nH]c1=O | inactive: 0.722
7 | COc1ccc([C@H]2Oc3cc(OC)cc(OC)c3C[C@H]2O)cc1 | inactive: 1.29
8 | O=C(NOC[C@H](O)CO)c1ccc(F)c(F)c1Nc1ccc(I)cc1F | inactive: 2.8
9 | C[C@]12C=CC(=O)C=C1CCC1C2[C@@H](O)C[C@@]2(C)C1CC[C@]2(O)C(=O)CO (stereo partly specified) | inactive: -0.134
10 | CC[C@@]1(O)C(=O)OCc2c1cc1n(c2=O)Cc2cc3c(CN(C)C)c(O)ccc3nc2-1.Cl [Topotecan hydrochloride] | inactive: 4.03
11 | COc1cc2nccc(Oc3ccc(NC(=O)Nc4ccc(F)cc4F)c(F)c3)c2cc1OC | inactive: 2.21
12 | C/C=C(/C(=C/C)c1ccc(O)cc1)c1ccc(O)cc1 | inactive: 2.03
13 | O=C(CCSCc1ccco1)NNC(=O)N1Cc2ccccc2Oc2ccc(Cl)cc21 | inactive: -0.828
14 | C[C@]12CC[C@H]3c4ccc(O)cc4CC[C@H]3[C@@H]1CCC2=O [Estrone] | inactive: 1.53
15 | CC(C)n1nccc1-c1ncccc1COc1cccc(O)c1C=O [voxelotor] | active: -3.02
16 | O=C(O)c1cc([N+](=O)[O-])ccc1NCCCc1ccccc1 [5-Nitro-2-(3-phenylpropylamino)benzoic acid] | inactive: 3.37
17 | C[C@@H]1CCC2[C@](C)(CO)[C@@H](O)CC[C@]2(C)[C@@]12CC[C@@](CO)(CCO)O2 (stereo partly specified) | inactive: 1.37
18 | NCC(=O)[O-].NCC(=O)[O-].[Fe+2] [Ferrous Bisglycinate] | inactive: 3.48
19 | COP(=O)(OC)OC=C(Cl)Cl | inactive: 2.75
20 | CC/C(=C(/CC)c1ccc(O)cc1)c1ccc(O)cc1 | inactive: 0.852
21 | O=C(O)c1cc(O)c(=O)c2c(O)c(O)c(O)cc2c1 | inactive: 2.38
22 | NCC1(CC(=O)O)CCCCC1 | inactive: 3.55
23 | NCC1(CC(=O)O)CCCCC1 [Gabapentin] | inactive: 2.86
24 | COc1ccc2c3c1O[C@H]1C[C@@H](O)C=C[C@@]31CCN(C)C2 | inactive: 3.31
25 | O=C(O)c1ccccc1Nc1cccc(C(F)(F)F)c1 | inactive: 1.01
26 | CC(C)[C@@]12O[C@@H]1[C@@H]1O[C@]13[C@]1(O[C@@H]1C[C@@H]1C4=C(CC[C@@]13C)C(=O)OC4)[C@@H]2O [Triptolide] | inactive: 2.4

Row | SMILES | cell-cell fusion (z-score)
27 | CC(C(=O)O)c1ccc(CC2CCCC2=O)cc1 (stereo unspecified) [loxoprofen] | inactive: 2.42
28 | CN(C)C(=O)Oc1cccc([N+](C)(C)C)c1.[Br-] [Neostigmine bromide] | inactive: 1.41
29 | COc1c(C)cnc(Cn2cnc3c(Cl)nc(N)nc32)c1C | inactive: 1.39
30 | CN1CCN2c3ccccc3Cc3ccccc3C2C1.Cl (stereo unspecified) [Mianserin hydrochloride] | inactive: 2.21
31 | CN1CCN2c3ccccc3Cc3ccccc3C2C1.Cl (stereo unspecified) | inactive: 3.64
32 | O=C(O)C(O)C(O)C(O)C(O)C(=O)O (stereo unspecified) | inactive: 1.24
33 | CCNC(=O)CC[C@H](N)C(=O)[O-].[K+] | inactive: 2.89
34 | O=C(/C=C/c1ccccc1)c1ccc(O)cc1 | inactive: 0.849
35 | CC(=O)OCC(=O)[C@@]1(O)CC[C@H]2[C@@H]3CCC4=CC(=O)CC[C@]4(C)[C@H]3C(=O)C[C@@]21C [Cortisone acetate] | inactive: 1.2
36 | CC(=O)OCC(=O)[C@@]1(O)CC[C@H]2[C@@H]3CCC4=CC(=O)CC[C@]4(C)[C@H]3C(=O)C[C@@]21C [Cortisone 21-acetate] | inactive: 2.19
37 | Cc1coc2c1C(=O)C(=O)c1c-2ccc2c1CCCC2(C)C | inactive: 1.01
38 | N#CC(O[C@@H]1O[C@H](CO[C@@H]2O[C@H](CO)[C@@H](O)[C@H](O)[C@H]2O)[C@@H](O)[C@H](O)[C@H]1O)c1ccccc1 (stereo partly specified) | inactive: 1.93
39 | CN1C2CCC1CC(OC(c1ccccc1)c1ccccc1N)C2 (stereo unspecified) [Aminobenztropine] | inactive: 1.42
40 | Cl.OCC1NCC(O)C(O)C1O (stereo unspecified) [1-Deoxynojirimycin hydrochloride] | inactive: 0.653
41 | C[C@]12C=CC(=O)C=C1CCC1C2CC[C@]2(C)C(=O)CCC12 (stereo partly specified) | inactive: 2.83
42 | COc1cc(OC)c2c(=O)c(O)c(-c3ccc(OC)c(OC)c3)oc2c1 | inactive: 1.96
43 | Nc1nc(F)nc2c1ncn2[C@H]1O[C@H](CO)[C@@H](O)[C@@H]1O [Fludarabine (Fludara)] | inactive: 1.73
44 | COc1cc(C(=O)NCCCCCC(=O)O)cc(OC)c1OC | inactive: 1.7
45 | O=C1[C@H](CC[C@H](O)c2ccc(F)cc2)[C@H](c2ccc(O)cc2)N1c1ccc(F)cc1 [Ezetimibe (Zetia)] | inactive: -2.6
46 | Nc1ncnc2c1ncn2[C@@H]1O[C@H](CO)[C@@H](O)[C@H]1O | inactive: 0.0405
47 | CC1(C)C(=O)C=C[C@@]2(C)C1C[C@@H](O)[C@]1(C)C2CC[C@@]2(C)[C@H](c3ccoc3)OC(=O)[C@H]3O[C@]321 (stereo partly specified) | inactive: 1.77
48 | Cl.N[C@@H](Cc1ccccc1)C(=O)O | inactive: 1.84
49 | Cc1ccc([N+](=O)[O-])cc1S(=O)(=O)N(C)C | inactive: 1.2
50 | c1ccc2[nH]c(-c3cscn3)nc2c1 | inactive: 2.54
51 | Cl.Nc1c2c(nc3ccccc13)CCCC2 [9-Amino-1,2,3,4-tetrahydroacridine hydrochloride] | inactive: 2.48
52 | C[C@@H](O)[C@H]1C(=O)N2C(C(=O)O)=C(S[C@@H]3CN[C@H](C(=O)N(C)C)C3)[C@H](C)[C@H]12 [Meropenem] | inactive: 2.33

13 entries from above, as tab-separated lines:
Row	SMILES	cell-cell fusion (z-score)
27	CC(C(=O)O)c1ccc(CC2CCCC2=O)cc1 (stereo unspecified) [loxoprofen]	inactive: 2.42
31	CN1CCN2c3ccccc3Cc3ccccc3C2C1.Cl (stereo unspecified)	inactive: 3.64
32	O=C(O)C(O)C(O)C(O)C(O)C(=O)O (stereo unspecified)	inactive: 1.24
37	Cc1coc2c1C(=O)C(=O)c1c-2ccc2c1CCCC2(C)C	inactive: 1.01
38	N#CC(O[C@@H]1O[C@H](CO[C@@H]2O[C@H](CO)[C@@H](O)[C@H](O)[C@H]2O)[C@@H](O)[C@H](O)[C@H]1O)c1ccccc1 (stereo partly specified)	inactive: 1.93
40	Cl.OCC1NCC(O)C(O)C1O (stereo unspecified) [1-Deoxynojirimycin hydrochloride]	inactive: 0.653
41	C[C@]12C=CC(=O)C=C1CCC1C2CC[C@]2(C)C(=O)CCC12 (stereo partly specified)	inactive: 2.83
42	COc1cc(OC)c2c(=O)c(O)c(-c3ccc(OC)c(OC)c3)oc2c1	inactive: 1.96
43	Nc1nc(F)nc2c1ncn2[C@H]1O[C@H](CO)[C@@H](O)[C@@H]1O [Fludarabine (Fludara)]	inactive: 1.73
44	COc1cc(C(=O)NCCCCCC(=O)O)cc(OC)c1OC	inactive: 1.7
47	CC1(C)C(=O)C=C[C@@]2(C)C1C[C@@H](O)[C@]1(C)C2CC[C@@]2(C)[C@H](c3ccoc3)OC(=O)[C@H]3O[C@]321 (stereo partly specified)	inactive: 1.77
48	Cl.N[C@@H](Cc1ccccc1)C(=O)O	inactive: 1.84
49	Cc1ccc([N+](=O)[O-])cc1S(=O)(=O)N(C)C	inactive: 1.2

(cont.)

Row | SMILES | cell-cell fusion (z-score)
53 | C[C@H]1CC2C([C@@H](O)C[C@@]3(C)C2CC[C@]3(O)C(=O)CO)[C@@]2(C)C=CC(=O)C=C12 (stereo partly specified) | inactive: -0.407
54 | CC(C(O)c1ccc(O)cc1)N1CCC(Cc2ccccc2)CC1.CC(C(O)c1ccc(O)cc1)N1CCC(Cc2ccccc2)CC1.O=C(O)C(O)C(O)C(=O)O (stereo unspecified) [Ifenprodil tartrate] | inactive: 0.85
55 | C[C@@H]1CC[C@H]2C(C)(C)C3CC12CC[C@@]3(C)O (stereo partly specified) | inactive: 1.16
56 | CN(C)Cc1ccc(-c2nc3cccc4c3n2CCNC4=O)cc1 | inactive: 2.4
57 | C[C@H](CCC(=O)[O-])[C@H]1CC[C@H]2[C@@H]3CC[C@@H]4C[C@H](O)CC[C@]4(C)[C@H]3C[C@H](O)[C@]12C.[Na+] [Sodium Desoxycholate] | inactive: 0.631
58 | CC(=O)S[C@@H]1CC2=CC(=O)CC[C@]2(C)[C@H]2CC[C@@]3(C)[C@@H](CC[C@@]34CCC(=O)O4)[C@H]12 [Abbolactone] | inactive: 3.15
59 | C=CCCCCCCCCCCCC(O)CC(O)COC(C)=O (stereo unspecified) | inactive: 3.1
60 | O=C(CCCN1C=CC(n2c(=O)[nH]c3ccccc32)CC1)c1ccc(F)cc1 (stereo unspecified) [Droperidol] | inactive: 3.09
61 | Cl.O=C1CC2(CCCC2)CC(=O)N1CCCCN1CCN(c2ncccn2)CC1 [Buspirone hydrochloride] | inactive: 1.46
62 | CCC(c1ccc(O)cc1)C(CC)c1ccc(O)cc1 (stereo unspecified) | inactive: -1.91
63 | COc1cc2c(c(OC)c1OC)-c1ccc(O)c(=O)cc1[C@@H](NC(C)=O)CC2 | inactive: 2.13
64 | CC(=O)N1CCCC1C(=O)O (stereo unspecified) | inactive: 1.47
65 | Cc1cnc(NC(=O)Nc2cc(Br)c(C)cc2OC[C@@H]2CNCCO2)cn1 | inactive: -1.24
66 | CC[N+](C)(C)c1cccc(O)c1.[Cl-] [Edrophonium chloride] | inactive: 2.48
67 | Cc1cc2c(cc1Cl)N(C(=O)Nc1ccnc3ccccc13)CC2 | inactive: 1.41
68 | CC(=O)N[C@H](C(=O)O)C(C)(C)SN=O [S-Nitroso-N-acetylpenicillamine] | inactive: 3
69 | CCCCN(CCCC)CC(O)c1cc(Cl)cc2c1-c1ccc(Cl)cc1/C2=C/c1ccc(Cl)cc1 (stereo unspecified) [Lumefantrine] | inactive: 3.68
70 | NC(=O)CI [Iodoacetamide] | inactive: 1.07
71 | CNC(=C[N+](=O)[O-])NCCSCc1ccc(CN(C)C)o1 [Ranitidin] | inactive: 3.1
72 | COC[C@H]1OC(=O)c2coc3c2[C@@]1(C)C1=C(C3=O)C2CCC(=O)[C@@]2(C)C[C@H]1OC(C)=O (stereo partly specified) [Wortmannin from Penicillium funiculosum] | inactive: 0.268
73 | CCCCC(CC)COC(=O)CC(C(=O)OCC(CC)CCCC)S(=O)(=O)[O-].[Na+] (stereo unspecified) | inactive: 3.99
74 | OCCOc1ccc(/C(=C(/CCCl)c2ccccc2)c2ccccc2)cc1 [Ospemifene] | inactive: 2.42
75 | CCN(CC)C(=O)c1cccc(C)c1 | inactive: 0.142
76 | CCc1cc(Cl)c(OC)c(C(=O)NC[C@@H]2CCN(CC)C2)c1O.Cl [S-(-)-Eticlopride hydrochloride] | inactive: 2.61
